Measured values: PubChem BioAssay AID493014 (National Center for Advancing Translational Sciences (NCATS), 2011)
Some of the results follow. Further columns of the screen follow, without active or inactive calls. Compounds called inactive in the main read-out are mostly missing here. The note in brackets gives the kind of curve behind each potency; many fits are weak.

Assay: qHTS Assay to Find Inhibitors of Chronic Active B-Cell Receptor Signaling
Settings: ABC-DLBCL IkBa-CBG/CBR reporter, luminescence ratio (green luciferase fused to IkBa over red control in TMD8 lymphoma cells), 4 h
In short: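 Doxycycline induced both beetle luciferases in TMD8 lymphoma cells; IKK-driven degradation limits the IkappaBalpha-fused green signal, while red luminescence normalises for cell number and nonspecific effects. Compounds tested up to 46 uM, 4 hrs.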

[1] = measured here: CBR red luminescence, cell number
[2] = measured here: IkBa-CBG green luminescence

SMILES	AC50 [1]	AC50 [2]
Cc1ccnc(N/C=C(\C#N)c2nc(-c3cccc(Br)c3)cs2)c1	29.1 µM [rising, single point]	
COc1ccc2c(c1)CCc1c(C(=O)N3CCCc4ccccc43)noc1-2	16.4 µM [falling, single point]	
COc1ccc2nc(N3CCOCC3)cc(C)c2c1	0.92 µM [rising, full curve, poor fit]	
CC(C)c1ccccc1-n1c(SCC(=O)N2CCc3ccccc3C2)nc2ccccc2c1=O	29.1 µM [falling, single point]	
O=C(CNC(=O)c1ccccc1F)NC1=NCCS1	3.55 µM [rising, partial curve]	
COc1ccccc1/C=C/C(=O)NCC(=O)N/N=C/c1cc(Br)ccc1OC	0.92 µM [rising, full curve]	
Cc1cc(O)c(C(C[N+](=O)[O-])c2ccc(Cl)cc2Cl)c(=O)o1 (configuration not stated)	29.1 µM [falling, single point]	
CCC1=Nc2cc(C(=O)NCc3ccco3)ccc2Sc2ccc(C)cc21	3.26 µM [rising, full curve]	1.64 µM [falling, full curve]
COc1ccccc1/C=C1\CCC(C2CCCC2)C1=O (configuration not stated)	12.6 µM [falling, partial curve, poor fit]	
CCN(C(=O)COC(=O)c1cc(-c2ccc(C)o2)nc2ccccc12)C1CCS(=O)(=O)C1 (configuration not stated)	25.1 µM [falling, single point]	
CCN(CC)CCC(=O)N1c2ccccc2CCc2ccc(NC(=O)OC(C)C)cc21	15.8 µM [falling, single point]	
C/C(CC(=O)N1CCN(C=O)CC1)=N\NC(=O)c1ccc([N+](=O)[O-])cc1	11.2 µM [rising, single point]	
O=C(NC(=S)Nc1ccccn1)c1ccccc1	12.6 µM [falling, partial curve]	22.4 µM [falling, single point]
COc1cccc(/C=C/c2ccc3cccc(O)c3n2)c1	35.5 µM [falling, single point]	31.6 µM [falling, single point]
Cc1onc(-c2ccccc2)c1C(=O)Nc1cccc(OC(C)C)c1	6.51 µM [falling, single point]	
N#Cc1c(-c2cccs2)nc(SCC(=O)c2cccs2)[nH]c1=O	0.891 µM [falling, full curve]	
CCN(CC)C(=O)c1ccc(Oc2ccc([N+](=O)[O-])cc2Cl)cc1	25.1 µM [falling, single point]	
Cc1ccccc1N1CCN(S(=O)(=O)Cc2ccccc2)CC1	22.4 µM [rising, single point]	
O=S(=O)(Nc1cccc(-c2nc3cccnc3s2)c1)c1ccc2c(c1)OCCO2	16.4 µM [falling, partial curve, poor fit]	
CCOC(=O)C1CCN(c2nc(C)nc3c2oc2ccccc23)CC1	35.5 µM [falling, single point]	
CC(=O)c1ccc(N/N=C2/CCCNC2=O)cc1	0.355 µM [rising, full curve, poor fit]	

SMILES	AC50 [1]	AC50 [2]
Cc1cc(C)nc(SCc2cn3c(C)cc(C)nc3n2)n1	6.31 µM [rising, partial curve, poor fit]	
COc1ccc(OCCCC(=O)Oc2ccc(OC)cc2)cc1	7.31 µM [rising, full curve, poor fit]	
Cc1ccc(N2CCN(c3ccc(C)cc3)C2c2cccnc2)cc1	23.1 µM [rising, single point]	
O=C(O)c1cccc(N2C(=S)N=C(Nc3ccccc3)C23CCCCC3)c1	14.1 µM [rising, partial curve, poor fit]	
Cc1ccc2nc(S(=O)(=O)O)[nH]c2c1	20 µM [rising, single point]	
Cc1ccc(S(=O)(=O)N2CCCCC2CCNC(=O)C(=O)NC2CC2)cc1 (configuration not stated)	0.461 µM [falling, full curve, poor fit]	
COc1ccc(-n2nc3cc(C)c(NC(=O)c4cccnc4)cc3n2)cc1	16.4 µM [falling, partial curve, poor fit]	
S=C(Nc1cccc(Cl)c1)N1CCOCC1	16.4 µM [rising, partial curve, poor fit]	
Nc1nonc1-n1nnc(C(=O)N/N=C/c2cccs2)c1CSc1ccccc1	7.08 µM [falling, partial curve, poor fit]	
Cc1ccc(S(=O)(=O)/C(C#N)=C/c2c(N3CCC(C(N)=O)CC3)nc3ccccn3c2=O)cc1	2.91 µM [falling, partial curve, poor fit]	
O=C(O)CCC(=O)N1CCN(c2nc(-c3ccccc3Cl)c3cc(Br)ccc3n2)CC1	1.78 µM [falling, partial curve, poor fit]	
Cc1cccc2nc(COc3ccc(-c4ccccc4)cc3)cn12	35.5 µM [rising, single point]	
NC(=O)c1ccccc1OCCOc1ccc(Br)cc1	11.2 µM [falling, partial curve, poor fit]	
C/C(=N\NC(=O)c1ccccc1)c1ccccc1F	8.91 µM [falling, partial curve]	
O=C(NC1CCCC1)C(c1ccncc1)N(Cc1ccccc1)C(=O)c1ccc(-c2ccccc2)[nH]1 (configuration not stated)	29.1 µM [falling, single point]	
CCOC(=O)Cc1csc(NC(=O)C2CCCN(S(=O)(=O)c3cnc[nH]3)C2)n1 (configuration not stated)	29.1 µM [falling, single point]	
CCc1ccc(NC(=O)C(=O)NCCc2sc3nc(-c4ccc(OC)cc4)nn3c2C)cc1	0.0891 µM [falling, full curve, poor fit]	
Cc1ccc(/C(O)=C/c2nc3ccccc3oc2=O)cc1	7.08 µM [falling, full curve, poor fit]	
COc1ccc(C2N(c3cc(Cl)ccc3OC)C(=O)C3CCCN32)c(OC)c1 (configuration not stated)	0.103 µM [falling, full curve, poor fit]	
O=C(Nc1cccc(-c2ccc(N3CCCCC3)nn2)c1)c1ccco1	23.1 µM [falling, single point]	
COC(=O)c1[nH]c2ccc(F)cc2c1NC(=O)CCN1CCN(Cc2ccc3c(c2)OCO3)CC1	15.8 µM [rising, partial curve, poor fit]	

Filtered by structure: those above containing a halogen (11)
SMILES	AC50 [1]	AC50 [2]
Cc1ccnc(N/C=C(\C#N)c2nc(-c3cccc(Br)c3)cs2)c1	29.1 µM [rising, single point]	
O=C(CNC(=O)c1ccccc1F)NC1=NCCS1	3.55 µM [rising, partial curve]	
COc1ccccc1/C=C/C(=O)NCC(=O)N/N=C/c1cc(Br)ccc1OC	0.92 µM [rising, full curve]	
Cc1cc(O)c(C(C[N+](=O)[O-])c2ccc(Cl)cc2Cl)c(=O)o1 (configuration not stated)	29.1 µM [falling, single point]	
CCN(CC)C(=O)c1ccc(Oc2ccc([N+](=O)[O-])cc2Cl)cc1	25.1 µM [falling, single point]	
S=C(Nc1cccc(Cl)c1)N1CCOCC1	16.4 µM [rising, partial curve, poor fit]	
O=C(O)CCC(=O)N1CCN(c2nc(-c3ccccc3Cl)c3cc(Br)ccc3n2)CC1	1.78 µM [falling, partial curve, poor fit]	
NC(=O)c1ccccc1OCCOc1ccc(Br)cc1	11.2 µM [falling, partial curve, poor fit]	
C/C(=N\NC(=O)c1ccccc1)c1ccccc1F	8.91 µM [falling, partial curve]	
COc1ccc(C2N(c3cc(Cl)ccc3OC)C(=O)C3CCCN32)c(OC)c1 (configuration not stated)	0.103 µM [falling, full curve, poor fit]	
COC(=O)c1[nH]c2ccc(F)cc2c1NC(=O)CCN1CCN(Cc2ccc3c(c2)OCO3)CC1	15.8 µM [rising, partial curve, poor fit]	

Continuation:

SMILES	AC50 [1]	AC50 [2]
O=C(Cc1ccccc1)c1ccc(Cl)cc1	11.2 µM [rising, partial curve, poor fit]	
Cc1csc(-c2cnn(-c3ccccc3)c2NC(=O)c2cccc(C(F)(F)F)c2)n1	23.1 µM [falling, single point]	
O=C(Nc1cccc(NC(=O)c2ccccc2Cl)c1)c1cccs1	17.8 µM [falling, single point]	
Cc1nonc1NC(=O)CSc1nc2c(C)cccc2cc1C#N	8.91 µM [falling, partial curve]	
COc1cccc(NC(=O)c2ccccc2NS(C)(=O)=O)c1	0.00461 µM [falling, full curve, poor fit]	
C[C@@H]1C[C@H]2[C@@H]3CCC4=CC(=O)C=C[C@]4(C)[C@@]3(F)[C@@H](O)C[C@]2(C)[C@@]1(O)C(=O)COP(=O)(O)O		0.103 µM [falling, full curve, poor fit]
CNc1nc(C)c(C(=O)OCc2ccccc2)s1	16.4 µM [rising, partial curve, poor fit]	18.4 µM [falling, partial curve, poor fit]
Nc1ccc(Oc2ccc(F)cc2)nc1	12.6 µM [rising, partial curve, poor fit]	
O=C1NCCCCC1NS(=O)(=O)c1cccc(C(F)(F)F)c1 (configuration not stated)	35.5 µM [rising, single point]	
CCc1cccc(CC)c1NC(=O)COC(=O)c1ccccc1-c1nc2ccccc2s1	4.11 µM [rising, single point]	
CCCCN(C(=O)c1oc2ccc(OCC)cc2c1C)c1c(N)n(CCCC)c(=O)[nH]c1=O	29.1 µM [rising, single point]	
CCOC(=O)[C@H](CCc1ccccc1)N[C@@H](C)C(=O)N1C(C(=O)O)C[C@@H]2CCC[C@@H]21 (some centres not stated)	0.231 µM [rising, full curve, poor fit]	
O=C(CSc1nc2ccccc2s1)Nc1ccc(Cl)c(C(=O)O)c1	22.4 µM [falling, single point]	
O=C(N/N=C/c1cccs1)c1cccc(NC(=O)c2ccccc2Cl)c1	23.1 µM [falling, partial curve, poor fit]	
O=C(CN1C(=O)NC2(CCCC2)C1=O)OCc1ccc(Cl)cc1Cl	29.1 µM [rising, single point]	
Cc1cc2cc(CNC(=O)COc3ccccc3)ccc2n1C	7.94 µM [rising, partial curve, poor fit]	
Cc1ccc(S(=O)(=O)N(CC(=O)O)Cc2ccccc2F)cc1	6.51 µM [falling, single point]	6.51 µM [rising, partial curve, poor fit]
CCC1(C)Cc2ccccc2-c2nc3n(c(=O)c21)CCCCC3 (configuration not stated)	6.51 µM [falling, single point]	
O=C(COC(=O)c1ccccc1Nc1cccc(C(F)(F)F)c1)NCc1ccco1	2.82 µM [rising, single point]	
Cc1ccc(N2C(=O)NC(NC(=O)C3CC3)(C(F)(F)F)C2=O)cc1 (configuration not stated)	29.1 µM [rising, single point]	
